The supplement of paper PMC4635364
Where a name gives a salt, the structure may show the parent alone. The list shows a part of the results. Repeats in this data set agree poorly, so a single value says little.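 ReNCell VM, a human fetal ventral-midbrain neural progenitor line, was differentiated without mitogens. Blinded raters scored images stained for doublecortin (early neurons) or tyrosine hydroxylase (dopaminergic neurons) against untreated wells (0 = no change). Scores were averaged across repeats and both raters, and compounds averaging 2 or more were selected as hits for retesting.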

These compounds were tested on ReNCell VM (assay: dopaminergic neuron differentiation score (TH+ cell fraction vs untreated, manual image score) (score (0 to 3)); higher = more TH+ dopaminergic neuron differentiation). Conditions: library: Tocriscreen; 2 uM; 4 weeks; BDNF 10 ng/ml + GDNF 10 ng/ml.
In the case of `c1ccc(C(O[C@@H]2CCCN(CCc3ccc4c(c3)OCO4)C2)c2ccccc2)cc1` [Zamifenacin fumarate], the “dopaminergic neuron differentiation score” value is reported as inactive: 0. For `Fc1ccc(-c2nc3n(c2-c2ccncc2)CCS3)cc1`, the “dopaminergic neuron differentiation score” value was inactive: 0. With `COC(=O)C1=C(C)NC(C)=C(C(=O)NCCCN2CCC(c3ccccc3)(c3ccccc3)CC2)C1c1ccc([N+](=O)[O-])cc1` (stereo not drawn) the “dopaminergic neuron differentiation score” value was inactive: 0.
